PubChem BioAssay AID743121, NCATS, 2013
Here is one part, drawn at random, of about 26,000 reagents. 167 of them (0.63%) were called active. 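Calls are per gene from RSA p-values that are not deposited; an individual active-marked siRNA can sensitise only weakly.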 Unmarked entries are inactive. The numbers tell different reagents against one gene apart. Not all columns of the deposit are shown.

Test: 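Knock-downs that sensitise breast cancer cells to camptothecin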 (primary screen)
System: MDA-MB-231 cells, a human breast cancer line
Reagent: single siRNA against human genes, 20 nM siRNA (0.8 pmol per well)
Timing: 120 h (drug added 48 h after transfection, read 72 h later)
Challenge: camptothecin 20 nM (about EC30) for 72 h; vehicle 0.1% DMSO in parallel plates
Measured: 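CellTiter-Glo ATP signal, scaled to control siRNA as percent viability; sensitisation given as log2 of untreated divided by camptothecin-treated viability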
Scale: log2 vehicle/camptothecin viability: higher = stronger sensitisation to camptothecin; viability with camptothecin: higher = more viable cells
Units: viability with camptothecin in % of control
Call rule: 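Active genes have an RSA gene-level p-value below 0.001, computed from the ratios of their separate siRNAs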

For PGLYRP3 #1 the deposit lists log2 vehicle/camptothecin viability 0.134; viability with camptothecin 31.9. PGLYRP3 #2 showed log2 vehicle/camptothecin viability -0.328; viability with camptothecin 76.6. PGLYRP3 #3 scored log2 vehicle/camptothecin viability 0.369; viability with camptothecin 67.7. After knock-down of PGLYRP3 #4, the record shows log2 vehicle/camptothecin viability 0.0149; viability with camptothecin 72.4. Silencing of ASAH1 #1 gave: log2 vehicle/camptothecin viability -0.0976; viability with camptothecin 37.1. ASAH1 #2 scored log2 vehicle/camptothecin viability -0.307; viability with camptothecin 79.

ASAH1 #3 showed log2 vehicle/camptothecin viability -0.445; viability with camptothecin 23.6. Silencing of ASAH1 #4 gave: log2 vehicle/camptothecin viability -0.0783; viability with camptothecin 45.6. For AVPR2 #1, the values are log2 vehicle/camptothecin viability 0.0697; viability with camptothecin 41.3. For AVPR2 #2, the entry reads log2 vehicle/camptothecin viability 0.023; viability with camptothecin 79.3. Against AVPR2 #3, the values are log2 vehicle/camptothecin viability -0.398; viability with camptothecin 77.2. With knock-down of AVPR2 #4, the record shows log2 vehicle/camptothecin viability -0.7; viability with camptothecin 119.

Against ASS1 #1 the deposit lists log2 vehicle/camptothecin viability 0.242; viability with camptothecin 67.6. Depletion of ASS1 #2 gave: log2 vehicle/camptothecin viability 0.0656; viability with camptothecin 72.5. Silencing of ASS1 #3 gave: log2 vehicle/camptothecin viability -0.682; viability with camptothecin 56.8. Against ASS1 #4 the deposit lists log2 vehicle/camptothecin viability -0.325; viability with camptothecin 85.4. With knock-down of CPLX2 #1 the results were log2 vehicle/camptothecin viability 0.178; viability with camptothecin 66.5. After knock-down of CPLX2 #2, the record shows log2 vehicle/camptothecin viability -0.406; viability with camptothecin 41.1.

With knock-down of CPLX2 #3, the record shows log2 vehicle/camptothecin viability -0.413; viability with camptothecin 91.7. For CPLX2 #4, the entry reads log2 vehicle/camptothecin viability 0.046; viability with camptothecin 97.1. OXSM #1 scored log2 vehicle/camptothecin viability -0.0831; viability with camptothecin 68.6. After knock-down of OXSM #2, the record shows log2 vehicle/camptothecin viability 0.336; viability with camptothecin 78.2. OXSM #3 gave log2 vehicle/camptothecin viability 0.000417; viability with camptothecin 65.1. Silencing of OXSM #4 resulted in: log2 vehicle/camptothecin viability -0.0356; viability with camptothecin 89.3.

Laid out differently: results already given.
ASAH1 #2
- log2 vehicle/camptothecin viability: -0.307
- viability with camptothecin: 79

ASAH1 #3
- log2 vehicle/camptothecin viability: -0.445
- viability with camptothecin: 23.6

ASAH1 #4
- log2 vehicle/camptothecin viability: -0.0783
- viability with camptothecin: 45.6
